For experiment [1], the target named is HLA-DRB1*04:01 monomeric protein (human). Description: competition assay against the HA peptide, DELFIA.
Experiment [2] has the same target. Put plainly: competition assay against the HA peptide, DELFIA (FIG. 5).

These are yes or no findings as the source states them, for the method shown. Binding calls can cover weak binding; strength is not graded here.

SAVRLQSSVPGVR [vimentin 66-78 mimic with a glutamine in position 71 (SEQ ID NO. 6)]: the binding entry in experiment [1] and in experiment [2] was “binds” in each case.

As for SAFRLQSSVPGVR, the binding entry in experiment [1] and in experiment [2] was “binds” throughout.

The record behind these values is US20250340616A1, “NOVEL PEPTIDE MIMICS AND THEIR USE” (STIFTELSEN VECTIS, priority 2021, published 2025).
